PubChem BioAssay AID1224829 – NIAID – 2016
Shown is a random part of about 3,800 deposited reagents. 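Calls cover raised and lowered translocation; gene median uses one vendor's three siRNAs; qiagen siRNAs acted more weakly than ambion siRNAs.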 Entries without a mark were called inactive. The numbers tell different reagents against one gene apart. Not all columns of the deposit are shown.

Assay: 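Secondary check of hits that alter LPS-induced p65 translocation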 (follow-up of hits)
Cell system: mouse RAW264.7 G9 macrophage reporter cells
Reagent: single siRNA against mouse genes, 100 nM
Duration: 2 days of siRNA knock-down, then 40 min of LPS before fixing
Challenge: LPS (Salmonella minnesota R595) at 10 ng/ml
Detection: 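High-content images after 40 min LPS exposure; GFP-p65 nucleus to surrounding ring signal ratio, normalised to plate median and non-targeting control wells, expressed as z-score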
Direction: p65 translocation z-score: higher = more nuclear NF-kappaB p65 after LPS
Call rule: 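An siRNA is called active when the mean z-score of its two replicates is above 2 or below -2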
Meaning of the calls: active = changed p65 translocation (either direction); inactive = no clear change

target | reagent no. | siRNA vendor or control pool | p65 translocation z-score, replicate mean | p65 translocation z-score, replicate 1
Ear2 (eosinophil-associated, ribonuclease A family, member 2) | 1 | qiagen single siRNA | 3.87 (active) | 4.74
Ear2 (eosinophil-associated, ribonuclease A family, member 2) | 2 | qiagen single siRNA | -0.995 | -2.12
Ear2 (eosinophil-associated, ribonuclease A family, member 2) | 3 | qiagen single siRNA | -5.17 (active) | -5.49
Tjp3 (tight junction protein 3) | 1 | ambion single siRNA | -0.211 | 0.52
Tjp3 (tight junction protein 3) | 2 | ambion single siRNA | -0.398 | -1.07
Tjp3 (tight junction protein 3) | 3 | ambion single siRNA | -1.52 | -2.41
Tjp3 (tight junction protein 3) | 4 | qiagen single siRNA | 1.41 | 0.486
Tjp3 (tight junction protein 3) | 5 | qiagen single siRNA | -2.02 (active) | -2.69
Tjp3 (tight junction protein 3) | 6 | qiagen single siRNA | -1.14 | 0.337
Tbck (TBC1 domain containing kinase) | 1 | ambion single siRNA | -0.625 | 0.133
Tbck (TBC1 domain containing kinase) | 2 | ambion single siRNA | -0.504 | -0.449
Tbck (TBC1 domain containing kinase) | 3 | ambion single siRNA | -2.29 (active) | -2.76
Hmga1 (high mobility group AT-hook 1) | 1 | ambion single siRNA | -3.57 (active) | -3.57
Hmga1 (high mobility group AT-hook 1) | 2 | ambion single siRNA | 0.821 | 1.24
Hmga1 (high mobility group AT-hook 1) | 3 | ambion single siRNA | -4.36 (active) | -4.89
Hmga1 (high mobility group AT-hook 1) | 4 | qiagen single siRNA | -1.65 | -1.14
Hmga1 (high mobility group AT-hook 1) | 5 | qiagen single siRNA | 2.84 (active) | 2.19
Hmga1 (high mobility group AT-hook 1) | 6 | qiagen single siRNA | 1.94 | 0.593
Thrap3 (thyroid hormone receptor associated protein 3) | 1 | ambion single siRNA | -1.33 | -3.43
Thrap3 (thyroid hormone receptor associated protein 3) | 2 | ambion single siRNA | -1.76 | 0.11
Thrap3 (thyroid hormone receptor associated protein 3) | 3 | ambion single siRNA | -0.657 | -1.69
Thrap3 (thyroid hormone receptor associated protein 3) | 4 | qiagen single siRNA | 2.75 (active) | 1.94
Thrap3 (thyroid hormone receptor associated protein 3) | 5 | qiagen single siRNA | 0.207 | 0.76
Thrap3 (thyroid hormone receptor associated protein 3) | 6 | qiagen single siRNA | -0.396 | -1.35
Fasl (Fas ligand) | 1 | ambion single siRNA | -0.618 | 0.222
Fasl (Fas ligand) | 2 | ambion single siRNA | -3.86 (active) | -0.39
Fasl (Fas ligand) | 3 | ambion single siRNA | -1.34 | -1.31
Fasl (Fas ligand) | 4 | qiagen single siRNA | 2.46 (active) | 2.15
Fasl (Fas ligand) | 5 | qiagen single siRNA | -0.234 | 0.0741
Fasl (Fas ligand) | 6 | qiagen single siRNA | -0.742 | -2.33
Nfe2 (nuclear factor, erythroid derived 2) | 1 | ambion single siRNA | 0.509 | -0.199
Nfe2 (nuclear factor, erythroid derived 2) | 2 | ambion single siRNA | -4.51 (active) | -5.5
Nfe2 (nuclear factor, erythroid derived 2) | 3 | ambion single siRNA | -0.741 | -1.36
Nfe2 (nuclear factor, erythroid derived 2) | 4 | qiagen single siRNA | 4.77 (active) | 3.81
Nfe2 (nuclear factor, erythroid derived 2) | 5 | qiagen single siRNA | 0.0654 | -0.511
Nfe2 (nuclear factor, erythroid derived 2) | 6 | qiagen single siRNA | 1.57 | 1.18
Gatm | 1 | ambion single siRNA | -0.872 | 0.455
Gatm | 2 | ambion single siRNA | 0.391 | 0.241
Gatm | 3 | ambion single siRNA | -5.37 (active) | -5.37
Gatm | 4 | qiagen single siRNA | 1.07 | 1.58
Gatm | 5 | qiagen single siRNA | 0.25 | 0.164
Gatm | 6 | qiagen single siRNA | 1.17 | 0.751
Hdac4 (histone deacetylase 4) | 1 | ambion single siRNA | -3.5 (active) | -3.34
Hdac4 (histone deacetylase 4) | 2 | ambion single siRNA | -4.04 (active) | -4.04
Hdac4 (histone deacetylase 4) | 3 | ambion single siRNA | -6.83 (active) | -8.19
Hdac4 (histone deacetylase 4) | 4 | qiagen single siRNA | -2.43 (active) | -1.47
Hdac4 (histone deacetylase 4) | 5 | qiagen single siRNA | -1.11 | -1.11
Hdac4 (histone deacetylase 4) | 6 | qiagen single siRNA | -4.31 (active) | -4.08
Klk1 (kallikrein 1) | 1 | ambion single siRNA | -0.851 | -0.593
Klk1 (kallikrein 1) | 2 | ambion single siRNA | -7.61 (active) | -8.46
Klk1 (kallikrein 1) | 3 | ambion single siRNA | -4.15 (active) | -4.61
Klk1 (kallikrein 1) | 4 | qiagen single siRNA | 0.202 | 0.412
Klk1 (kallikrein 1) | 5 | qiagen single siRNA | 0.484 | 0.691
Klk1 (kallikrein 1) | 6 | qiagen single siRNA | -4.93 (active) | -3.53
